Results as given in doi:10.1101/2023.05.30.542914 (bioRxiv, 2023).
Results are given in words; binding and its absence hold for the method and conditions named. In cells and extracts the contact can be indirect. Here binding means that the protein was enriched with, or labelled near, the bait; the list need not be complete. Sequences can lack the tags named with a protein.

Chains of the proteins cited; added tags and fusions are not shown.
UniProt P53621: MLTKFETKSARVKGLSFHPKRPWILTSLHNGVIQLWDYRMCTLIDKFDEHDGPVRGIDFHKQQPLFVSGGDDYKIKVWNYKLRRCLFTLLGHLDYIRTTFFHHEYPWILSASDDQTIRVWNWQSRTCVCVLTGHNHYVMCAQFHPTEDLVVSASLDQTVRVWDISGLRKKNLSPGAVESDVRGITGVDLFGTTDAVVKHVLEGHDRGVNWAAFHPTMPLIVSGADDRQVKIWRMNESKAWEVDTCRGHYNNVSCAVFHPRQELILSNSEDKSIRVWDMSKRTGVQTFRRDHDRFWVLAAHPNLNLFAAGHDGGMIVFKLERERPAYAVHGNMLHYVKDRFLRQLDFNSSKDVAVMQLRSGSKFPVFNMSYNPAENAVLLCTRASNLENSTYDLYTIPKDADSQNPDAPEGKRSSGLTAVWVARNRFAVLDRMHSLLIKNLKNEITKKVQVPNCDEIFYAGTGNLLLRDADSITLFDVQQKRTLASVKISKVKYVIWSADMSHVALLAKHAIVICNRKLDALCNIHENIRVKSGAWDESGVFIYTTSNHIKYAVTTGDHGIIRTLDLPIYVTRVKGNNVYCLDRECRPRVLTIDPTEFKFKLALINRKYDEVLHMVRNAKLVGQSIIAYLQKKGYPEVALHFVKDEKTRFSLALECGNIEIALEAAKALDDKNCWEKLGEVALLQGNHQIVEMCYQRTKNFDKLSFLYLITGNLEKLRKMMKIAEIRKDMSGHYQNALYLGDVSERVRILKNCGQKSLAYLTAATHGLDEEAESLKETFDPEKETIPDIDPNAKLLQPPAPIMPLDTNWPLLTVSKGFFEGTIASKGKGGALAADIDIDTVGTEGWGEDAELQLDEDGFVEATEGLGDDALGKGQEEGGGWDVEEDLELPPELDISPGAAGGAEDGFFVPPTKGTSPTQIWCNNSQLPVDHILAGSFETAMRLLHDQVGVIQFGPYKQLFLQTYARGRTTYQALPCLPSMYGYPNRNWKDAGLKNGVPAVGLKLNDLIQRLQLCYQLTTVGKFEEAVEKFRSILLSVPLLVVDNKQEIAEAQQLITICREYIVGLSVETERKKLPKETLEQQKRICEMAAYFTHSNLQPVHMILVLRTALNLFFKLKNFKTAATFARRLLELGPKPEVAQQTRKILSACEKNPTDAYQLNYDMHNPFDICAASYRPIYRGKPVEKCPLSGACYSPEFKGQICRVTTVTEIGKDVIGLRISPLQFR

Biological target: T1, Wnt7a-HA, full length (Wnt7a-FL) (human) (UniProt O00755)
T1 sequence: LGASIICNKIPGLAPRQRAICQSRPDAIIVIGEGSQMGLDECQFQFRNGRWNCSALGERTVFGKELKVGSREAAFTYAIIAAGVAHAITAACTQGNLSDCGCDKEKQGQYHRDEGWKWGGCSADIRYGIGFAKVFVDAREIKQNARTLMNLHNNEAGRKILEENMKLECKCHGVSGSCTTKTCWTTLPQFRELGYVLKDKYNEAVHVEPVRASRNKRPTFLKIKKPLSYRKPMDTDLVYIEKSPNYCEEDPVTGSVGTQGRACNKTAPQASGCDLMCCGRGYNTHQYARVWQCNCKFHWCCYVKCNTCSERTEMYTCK
Experiment: affinity purification with mass spectrometry

## COPA (from UniProt P53621)
  binding: binds

B1: COPB2 (protein, UniProt P35606 1-906)
chain: MPLRLDIKRKLTARSDRVKSVDLHPTEPWMLASLYNGSVCVWNHETQTLVKTFEVCDLPVRAAKFVARKNWVVTGADDMQIRVFNYNTLERVHMFEAHSDYIRCIAVHPTQPFILTSSDDMLIKLWDWDKKWSCSQVFEGHTHYVMQIVINPKDNNQFASASLDRTIKVWQLGSSSPNFTLEGHEKGVNCIDYYSGGDKPYLISGADDRLVKIWDYQNKTCVQTLEGHAQNVSCASFHPELPIIITGSEDGTVRIWHSSTYRLESTLNYGMERVWCVASLRGSNNVALGYDEGSIIVKLGREEPAMSMDANGKIIWAKHSEVQQANLKAMGDAEIKDGERLPLAVKDMGSCEIYPQTIQHNPNGRFVVVCGDGEYIIYTAMALRNKSFGSAQEFAWAHDSSEYAIRESNSIVKIFKNFKEKKSFKPDFGAESIYGGFLLGVRSVNGLAFYDWDNTELIRRIEIQPKHIFWSDSGELVCIATEESFFILKYLSEKVLAAQETHEGVTEDGIEDAFEVLGEIQEIVKTGLWVGDCFIYTSSVNRLNYYVGGEIVTIAHLDRTMYLLGYIPKDNRLYLGDKELNIISYSLLVSVLEYQTAVMRRDFSMADKVLPTIPKEQRTRVAHFLEKQGFKQQALTVSTDPEHRFELALQLGELKIAYQLAVEAESEQKWKQLAELAISKCQFGLAQECLHHAQDYGGLLLLATASGNANMVNKLAEGAERDGKNNVAFMSYFLQGKVDACLELLIRTGRLPEAAFLARTYLPSQVSRVVKLWRENLSKVNQKAAESLADPTEYENLFPGLKEAFVVEEWVKETHADLWPAKQYPLVTPNEERNVMEEGKDFQPSRSTAQQELDGKPASPTPVIVASHTANKEEKSLLELEVDLDNLELEDIDTTDINLDEDILDD
  binding: binds
